± gives the standard deviation of the averaged measurements. Small differences around the control level are noise.
Key:
Test in all cases: level (log10 ratio to DMSO vehicle control); higher = higher biomarker level / cell amount than vehicle control
[1] = compound: FC(F)(F)COC(OCC(F)(F)F)OCC(F)(F)F [tris(Trifluoroethoxy)methane] (in DMSO); conditions: 2200 nM
Experimental: (§1)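 BioMAP Diversity Plus panel of 12 human primary cell co-culture systems (3C, 4H, LPS, SAg, BT, BF4T, BE3C, CASM3C, HDF3CGF, KF3CT, MyoF, Mphg). Compounds were added 1 h before stimulation and left for 24 h (MyoF 48 h; BT 72 h for soluble read-outs or 6 d for IgG). Biomarkers were read by ELISA, cytotoxicity by SRB, PBMC viability and proliferation by Alamar Blue. Each well value was divided by the mean of 8 DMSO control wells on the same plate and log10 transformed; duplicate blinded samples were tested at 4 concentrations.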

[2] = compound: OCCCC(F)(F)C(F)(F)C(F)(F)C(F)(F)C(F)(F)C(F)(F)C(F)(F)C(F)(F)F [3-(Perfluorooctyl)propanol] (in DMSO); conditions: 2200 nM
Experimental: as §1

[3] = compound: OCC(F)(F)C(F)(F)C(F)(F)C(F)(F)C(F)(F)C(F)(F)F [6:1 Fluorotelomer alcohol] (in DMSO); conditions: 2200 nM
Experimental: as §1

[4] = compound: O=C(O)C(F)(F)C(F)(F)C(F)(F)OC(F)(C(F)(F)F)C(F)(F)F [Perfluoro-4-isopropoxybutanoic acid] (in DMSO); conditions: 2200 nM
Experimental: as §1

[5] = compound: FC(F)(F)C(F)(F)C(F)(F)C(F)(F)CCI [1H,1H,2H,2H-Perfluorohexyl iodide] (in DMSO); conditions: 2200 nM
Experimental: as §1

[6] = compound: O=C(O)C(F)(F)C(F)(F)C(F)(F)C(F)(F)C(F)(F)F [Perfluorohexanoic acid] (in DMSO)
Experimental: as §1

[7] = compound: O=C(O)C(F)(OC(F)(F)C(F)(F)C(F)(F)F)C(F)(F)F [Ammonium perfluoro-2-methyl-3-oxahexanoate] (in Water)
Experimental: as §1

[8] = compound: OCC(F)(F)OC(F)(F)C(F)(F)OC(F)(F)CO [1H,1H,8H,8H-Perfluoro-3,6-dioxaoctane-1,8-diol] (in DMSO); conditions: 2200 nM
Experimental: as §1

[9] = compound: O=C(O)C(F)(OC(F)(F)C(F)(OC(F)(F)C(F)(OC(F)(F)C(F)(F)C(F)(F)F)C(F)(F)F)C(F)(F)F)C(F)(F)F [Perfluoro-(2,5,8-trimethyl-3,6,9-trioxadodecanoic)acid] (in DMSO); conditions: 370 nM
Experimental: as §1

[10] = compound: CNS(=O)(=O)C(F)(F)C(F)(F)C(F)(F)C(F)(F)C(F)(F)C(F)(F)C(F)(F)C(F)(F)F [N-Methylperfluorooctanesulfonamide] (in DMSO); conditions: 2200 nM
Experimental: as §1

[11] = compound: OCC(F)(F)C(F)(F)C(F)(F)C(F)(F)C(F)(F)C(F)(F)CO [1H,1H,8H,8H-Perfluorooctane-1,8-diol] (in DMSO); conditions: 2200 nM
Experimental: as §1

[12] = compound: O=C(O)CCC(F)(F)C(F)(F)C(F)(F)F [3:3 Fluorotelomer carboxylic acid] (in DMSO); conditions: 2200 nM
Experimental: as §1

[13] = compound: O=S(=O)(O)C(F)(F)C(F)(F)C(F)(F)C(F)(F)F [Perfluorobutanesulfonic acid] (in DMSO)
Experimental: as §1

[14] = compound: O=C(O)C(F)(F)C(F)(F)C(F)(F)C(=O)O [Hexafluoroglutaric acid] (in DMSO)
Experimental: as §1

[15] = compound: C=C(C)C(=O)OCCC(F)(F)C(F)(F)C(F)(F)C(F)(F)C(F)(F)C(F)(F)F [6:2 Fluorotelomer methacrylate] (in DMSO); conditions: 2200 nM
Experimental: as §1

[16] = compound: OCC(F)(F)C(F)(F)C(F)(F)C(F)F [1H,1H,5H-Perfluoropentanol] (in DMSO); conditions: 2200 nM
Experimental: as §1

[17] = compound: FC(F)(F)C(F)(F)CNCC(F)(F)C(F)(F)F [Bis(1H,1H-perfluoropropyl)amine] (in DMSO); conditions: 2200 nM
Experimental: as §1

Row | Test System | level (log10) [1] | level (log10) [2] | level (log10) [3] | level (log10) [4] | level (log10) [5] | level (log10) ([6]; 2200 nM) | level (log10) ([6]; 6700 nM) | level (log10) ([6]; 20000 nM) | level (log10) ([6]; 60000 nM) | level (log10) ([7]; 2200 nM) | level (log10) ([7]; 6700 nM) | level (log10) ([7]; 20000 nM) | level (log10) ([7]; 60000 nM) | level (log10) [8] | level (log10) [9] | level (log10) [10] | level (log10) [11] | level (log10) [12] | level (log10) ([13]; 2200 nM) | level (log10) ([13]; 6700 nM) | level (log10) ([13]; 20000 nM) | level (log10) ([13]; 60000 nM) | level (log10) ([14]; 2200 nM) | level (log10) ([14]; 6700 nM) | level (log10) ([14]; 20000 nM) | level (log10) ([14]; 60000 nM) | level (log10) [15] | level (log10) [16] | level (log10) [17]
1 | SAg:CXCL9/MIG | 0.006 ± 0.017 | -0.0175 ± 0.011 | 0.0095 ± 0.012 | 0.0045 ± 0.0021 | 0.0055 ± 0.00071 | 0.0045 ± 0.0021 | -0.0005 ± 0.0064 | -0.001 ± 0.0085 | 0.0055 ± 0.005 | 0.0125 ± 0.011 | -0.006 ± 0.0085 | 0.001 ± 0.014 | 0.001 ± 0.028 | -0.004 ± 0.0085 | 0.0075 ± 0.019 | 0.0115 ± 0.013 | 0.0025 ± 0.005 | 0.005 ± 0.013 | -0.0145 ± 0.0064 | -0.0105 ± 0.00071 | 0.002 ± 0.014 | -0.002 ± 0.02 | -0.0025 ± 0.015 | -0.0015 ± 0.00071 | -0.012 ± 0.0042 | -0.0005 ± 0.005 | -0.002 ± 0.025 | 0.008 ± 0.0014 | -0.0015 ± 0.0092
2 | BE3C:SRB | -0.006 ± 0.0028 | 0.0005 ± 0.00071 | -0.004 | 0.006 ± 0.0071 | 0.0015 ± 0.013 | -0.01 ± 0.0085 | -0.001 | -0.006 ± 0.0014 | 0.009 ± 0.018 | 0 ± 0.013 | -0.003 ± 0.0042 | 0 ± 0.0014 | 0.003 ± 0.0099 | 0.012 ± 0.017 | -0.0025 ± 0.005 | 0.0035 ± 0.018 | 0.0015 ± 0.0035 | 0.005 ± 0.023 | -0.0005 ± 0.0064 | 0.001 | -0.004 ± 0.0028 | -0.003 ± 0.0014 | 0.0135 ± 0.019 | 0.0035 ± 0.0035 | -0.005 | 0.0125 ± 0.012 | 0.0015 ± 0.0092 | -0.003 ± 0.0028 | 0.007 ± 0.02
3 | 3C:CD142/Tissue Factor | -0.0055 ± 0.04 | -0.034 ± 0.051 | 0.0075 ± 0.019 | 0 ± 0.033 | -0.01 ± 0.031 | 0.006 ± 0.017 | 0.011 ± 0.0085 | -0.0135 ± 0.0092 | 0.0005 ± 0.012 | 0.0975 ± 0.054 | 0.0735 ± 0.012 | 0.0805 ± 0.0078 | 0.0805 ± 0.00071 | 0.0255 ± 0.018 | -0.0065 ± 0.013 | -0.0275 ± 0.042 | 0.006 ± 0.037 | 0.029 ± 0.011 | 0.0035 ± 0.00071 | 0.003 ± 0.0028 | 0.001 ± 0.0071 | -0.005 ± 0.038 | -0.0005 ± 0.011 | -0.006 ± 0.02 | -0.004 ± 0.028 | -0.0685 ± 0.005 | -0.02 ± 0.073 | 0.0115 ± 0.0078 | 0.0455 ± 0.023
4 | LPS:CD40 | -0.0265 ± 0.052 | -0.0215 ± 0.049 | 0.0375 ± 0.029 | 0.0095 ± 0.033 | 0.016 ± 0.027 | 0.0465 ± 0.11 | 0.041 ± 0.096 | 0.038 ± 0.13 | 0.0215 ± 0.14 | -0.0295 ± 0.011 | -0.014 ± 0.018 | -0.0145 ± 0.016 | -0.045 ± 0.03 | 0.009 ± 0.038 | 0.049 ± 0.083 | -0.0375 ± 0.043 | -0.028 ± 0.024 | 0.005 ± 0.025 | -0.011 ± 0.0085 | -0.0395 ± 0.00071 | -0.0375 ± 0.029 | -0.0555 ± 0.052 | -0.018 ± 0.018 | 0 ± 0.0028 | -0.0035 ± 0.035 | 0.0085 ± 0.046 | -0.027 ± 0.0099 | -0.027 ± 0.0099 | 0.05 ± 0.035
5 | BF4T:SRB | 0.001 ± 0.014 | -0.007 ± 0.0057 | 0.0245 ± 0.037 | 0 ± 0.0057 | -0.0035 ± 0.0092 | -0.0015 ± 0.015 | -0.0025 ± 0.00071 | -0.0095 ± 0.0092 | 0.0105 ± 0.0064 | 0.006 ± 0.0099 | -0.003 ± 0.013 | 0 ± 0.0014 | 0.0135 ± 0.022 | 0.0035 ± 0.021 | 0.0105 ± 0.015 | -0.0005 ± 0.011 | 0 ± 0.0057 | 0.002 ± 0.016 | 0.007 ± 0.018 | -0.006 ± 0.0099 | -0.0085 ± 0.005 | -0.009 ± 0.0028 | 0.005 ± 0.02 | -0.005 ± 0.0028 | -0.0065 ± 0.0021 | -0.0015 ± 0.0078 | 0.0035 ± 0.019 | 0.005 ± 0.0057 | -0.0045 ± 0.0092
6 | 3C:HLA-DR | -0.005 ± 0.025 | 0.0025 ± 0.035 | 0.0055 ± 0.016 | 0.014 ± 0.025 | 0.0035 ± 0.0064 | 0.009 ± 0.021 | 0.002 ± 0.0042 | 0.004 ± 0.014 | -0.002 ± 0.0085 | 0.007 ± 0.0028 | 0.0075 ± 0.011 | 0.0175 ± 0.028 | 0.016 ± 0.0014 | -0.0025 ± 0.036 | 0.009 ± 0.014 | 0.0005 ± 0.023 | -0.008 ± 0.023 | -0.011 ± 0.011 | -0.0085 ± 0.0035 | -0.0015 ± 0.015 | -0.007 ± 0.0057 | -0.006 ± 0.013 | 0.035 ± 0.068 | 0.0225 ± 0.035 | 0.0315 ± 0.047 | 0.038 ± 0.042 | 0.005 ± 0.0014 | 0.013 ± 0.0042 | 0.0135 ± 0.0064
7 | CASM3C:Proliferation | -0.034 ± 0.082 | -0.019 ± 0.025 | 0.006 ± 0.0042 | 0.0015 ± 0.0021 | 0.0075 ± 0.05 | -0.0185 ± 0.043 | -0.001 ± 0.018 | -0.065 | -0.0055 ± 0.015 | 0.0255 ± 0.0035 | -0.07 ± 0.085 | -0.095 ± 0.02 | -0.104 ± 0.065 | -0.022 ± 0.0028 | -0.024 ± 0.067 | 0.0115 ± 0.0078 | -0.0325 ± 0.0078 | -0.0015 ± 0.00071 | -0.059 ± 0.028 | -0.0455 ± 0.044 | -0.0405 ± 0.013 | -0.019 ± 0.017 | -0.006 | -0.015 ± 0.083 | -0.029 ± 0.0071 | 0.004 ± 0.0071 | -0.0245 ± 0.032 | -0.004 ± 0.075 | -0.0205 ± 0.019
8 | BT:B cell Proliferation | -0.025 ± 0.04 | 0.012 ± 0.0028 | 0.0235 ± 0.0035 | 0.003 ± 0.038 | 0.0065 ± 0.0021 | 0.0065 ± 0.05 | -0.047 ± 0.048 | -0.0035 ± 0.042 | 0.0275 ± 0.063 | -0.237 ± 0.045 | -0.239 ± 0.0085 | -0.256 ± 0.011 | -0.248 ± 0.0035 | -0.015 ± 0.023 | -0.0085 ± 0.0064 | 0.0015 ± 0.033 | 0.0075 ± 0.019 | 0.011 ± 0.03 | 0.0085 ± 0.0021 | -0.0025 ± 0.016 | 0.0085 ± 0.016 | 0.038 ± 0.0014 | -0.0195 ± 0.005 | -0.005 ± 0.0042 | -0.0035 ± 0.0078 | 0.011 ± 0.017 | -0.008 ± 0.0028 | 0.029 ± 0.05 | 0.0145 ± 0.021

From the supplement of paper PMC10331698
